According to PubChem BioAssay:
“And” between values parts separate entries of the source, which are not always exact repeats. Identical values can stand only once. Some of the results follow. Entries without a call are filed as inconclusive in the source. For part of these data: Entries with a potency or affinity are not part of this list. Residues, ends and D or L forms follow the SMILES beside them.

assay: PubChem AID 1600; conditions: yeast Parkinson's disease model, growth rescue; stronger effect = higher value

**Q.** Which score does the source give for `CC(=O)Oc1ccc2c(c1)CCC1C2CCC2(C)C(=O)CCC12` (stereo not drawn) here?
**A.** Its score is 0.205.

**Q.** For `CN(C)CCOC(c1ccccc1)c1ccccc1` (tested in a mixture with another compound), which score is on record?
**A.** Its score is -0.341.

**Q.** With `CN[C@@H]1[C@H](O)[C@H](NC)[C@H]2O[C@@]3(O)C(=O)C[C@@H](C)O[C@H]3O[C@@H]2[C@H]1O` as the compound, how does the score read?
**A.** The score was -1.21.

**Q.** Which score does the source give for `CC(=O)N1CCN(c2ccc(OCC3CO[C@](Cn4ccnc4)(c4ccc(Cl)cc4Cl)O3)cc2)CC1` (stereo partly drawn) here?
**A.** Its score is -1.26.

**Q.** Which score does the source give for `N=C(N)N` here?
**A.** Its score is -0.447.

**Q.** For `O=C(O)c1c2ccccc2cc2ccccc12`, which score is on record?
**A.** The score was 0.518.

**Q.** For `Cc1c(OCC(F)(F)F)ccnc1CS(=O)c1nc2ccccc2[nH]1` (stereo not drawn), which score is on record?
**A.** Its score is -0.052.

**Q.** Which score does the source give for `CCOC(=O)C(C)(C)Oc1ccc(Cl)cc1` here?
**A.** Its score is -0.282 and -0.145.

**Q.** For `CC(=O)Nc1ccc(O)cc1`, which score is on record?
**A.** The score was -0.128.

**Q.** For `CCC(=O)OC1CCC2C3CCc4cc(O)ccc4C3CCC12C` (stereo not drawn), which score is on record?
**A.** The score was -0.643.

**Q.** With `CC1CCc2cc(F)cc3c(=O)c(C(=O)O)cn1c23` (stereo not drawn) as the compound, how does the score read?
**A.** Its score is -0.64.

**Q.** With `Nc1c2c(nc3ccccc13)CCCC2O` (stereo not drawn) as the compound, how does the score read?
**A.** Its score is 0.215.

**Q.** With `CC(C[N+](C)(C)C)OC(N)=O` (stereo not drawn) as the compound, how does the score read?
**A.** Its score is -0.087.

**Q.** With `O=c1c(-c2ccc(O)cc2)coc2cc(O)ccc12` as the compound, how does the score read?
**A.** Its score is 1.75.

**Q.** Which score does the source give for `NC1(C(=O)O)CCCC1` here?
**A.** Its score is -2.32.

**Q.** Which score does the source give for `O=c1[nH]c(=O)n(C2C[C@@H](O)[C@@H](CO)O2)cc1F` (stereo partly drawn) here?
**A.** The score was 0.683.

**Q.** With `CC(=O)O[C@]1(C(C)=O)CCC2C3C=C(Cl)C4=CC(=O)[C@@H]5C[C@@H]5[C@]4(C)C3CC[C@@]21C` (stereo partly drawn) as the compound, how does the score read?
**A.** Its score is -1.59.

**Q.** For `CCCNC(=O)NS(=O)(=O)c1ccc(Cl)cc1`, which score is on record?
**A.** The score was -0.628.

**Q.** Which score does the source give for `NCCCCC(N)C(=O)NCC(=O)NC(Cc1cnc[nH]1)C(=O)NC(CCCCN)C(=O)O` (stereo not drawn) (H-KGHK-OH; configuration not given here) here?
**A.** The score was -1.13.

**Q.** Which score does the source give for `C[C@@H]1CC2C3C[C@H](F)C4=CC(=O)C=CC4(C)C3(F)[C@@H](O)CC2(C)C1C(=O)COC(=O)C(C)(C)C` (stereo partly drawn) here?
**A.** The score was -0.439.

**Q.** Which score does the source give for `CCCCCC(C)N` (stereo not drawn) here?
**A.** The score was 0.221.

**Q.** For `NS(=O)(=O)c1cc2c(cc1C(F)(F)F)NCNS2(=O)=O`, which score is on record?
**A.** The score was 0.272.

**Q.** Which score does the source give for `COC(=O)Nc1nc2ccc(Sc3ccccc3)cc2[nH]1` here?
**A.** The score was 0.398.

**Q.** For `CCCCCCOc1ccccc1C(N)=O`, which score is on record?
**A.** The score was -1.62.

**Q.** With `O=C1NC(=O)C(c2ccccc2)(c2ccccc2)N1` as the compound, how does the score read?
**A.** The score was -1.61.

**Q.** For `COc1cccc(OC)c1C(=O)N[C@@H]1C(=O)N2[C@@H]1SC(C)(C)[C@@H]2C(=O)O`, which score is on record?
**A.** Its score is -1.59.

**Q.** With `CN(Cc1cnc2nc(N)nc(N)c2n1)c1ccc(C(=O)N[C@@H](CCC(=O)O)C(=O)O)cc1` as the compound, how does the score read?
**A.** The score was -0.951.

**Q.** Which score does the source give for `O=C1CN(/N=C/c2ccc([N+](=O)[O-])o2)C(=O)N1` here?
**A.** Its score is -0.321.

**Q.** With `C=C[C@H]1CN2CC[C@H]1C[C@@H]2[C@H](O)c1ccnc2ccc(OC)cc12` as the compound, how does the score read?
**A.** The score was -0.89.

**Q.** For `CSCCC(NC=O)C(=O)NC(CC(C)C)C(=O)NC(Cc1ccccc1)C(=O)O` (stereo not drawn), which score is on record?
**A.** Its score is -0.125.

**Q.** Which score does the source give for `Cn1cc[nH]c1=S` here?
**A.** The score was 0.057.

**Q.** For `CSc1ccc2c(c1)N(CCC1CCCCN1C)c1ccccc1S2` (stereo not drawn), which score is on record?
**A.** The score was -0.144.

**Q.** Which score does the source give for `CC(=O)[C@H]1CCC2C3CCC4=CC(=O)CC[C@]4(C)C3CC[C@@]21C` (stereo partly drawn) here?
**A.** Its score is -0.269.

**Q.** With `C=C[C@@]1(C)CC(=O)[C@@]2(O)[C@](C)(O1)[C@@H](OC(C)=O)[C@@H](O)C1C(C)(C)CC[C@H](O)[C@@]12C` (stereo partly drawn) as the compound, how does the score read?
**A.** The score was 0.139.

**Q.** With `Cc1cc(C)nc(NS(=O)(=O)c2ccc(N)cc2)n1` as the compound, how does the score read?
**A.** Its score is 2.31.

**Q.** With `NNc1nncc2ccccc12` as the compound, how does the score read?
**A.** The score was -0.683.

**Q.** With `CN(C)CCCN1c2ccccc2Sc2ccc(Cl)cc21` as the compound, how does the score read?
**A.** Its score is -0.056.

**Q.** With `O=C(O)C1=CCNCC1` as the compound, how does the score read?
**A.** The score was -0.977.

**Q.** For `COc1cc(C(=O)NCc2ccc(OCCN(C)C)cc2)cc(OC)c1OC`, which score is on record?
**A.** The score was -0.652.

assay: protection from mutant SOD1-driven cell killing (AID 1601); conditions: mutant SOD1 cell death rescue, 1 uM; stronger effect = higher value

**Q.** Which protection does the source give for `CC(=O)Oc1ccc2c(c1)CCC1C2CCC2(C)C(=O)CCC12` (stereo not drawn) here?
**A.** The protection was -6.94%.

**Q.** For `CN(C)CCOC(c1ccccc1)c1ccccc1` (tested in a mixture with another compound), which protection is on record?
**A.** The protection was 1.52%.

**Q.** For `CN[C@@H]1[C@H](O)[C@H](NC)[C@H]2O[C@@]3(O)C(=O)C[C@@H](C)O[C@H]3O[C@@H]2[C@H]1O`, which protection is on record?
**A.** Its protection is -1.26%.

**Q.** For `CC(=O)N1CCN(c2ccc(OCC3CO[C@](Cn4ccnc4)(c4ccc(Cl)cc4Cl)O3)cc2)CC1` (stereo partly drawn), which protection is on record?
**A.** The protection was -24.5%.

**Q.** For `N=C(N)N`, which protection is on record?
**A.** The protection was -19.1%.

**Q.** Which protection does the source give for `O=C(O)c1c2ccccc2cc2ccccc12` here?
**A.** The protection was 2.36%.

**Q.** Which protection does the source give for `Cc1c(OCC(F)(F)F)ccnc1CS(=O)c1nc2ccccc2[nH]1` (stereo not drawn) here?
**A.** The protection was 27.8%.

**Q.** For `CCOC(=O)C(C)(C)Oc1ccc(Cl)cc1`, which protection is on record?
**A.** The protection was -10.7% and -5.54%.

**Q.** With `CC(=O)Nc1ccc(O)cc1` as the compound, how does the protection read?
**A.** The protection was -13%.

**Q.** For `CCC(=O)OC1CCC2C3CCc4cc(O)ccc4C3CCC12C` (stereo not drawn), which protection is on record?
**A.** The protection was -13.3%.

**Q.** For `CC1CCc2cc(F)cc3c(=O)c(C(=O)O)cn1c23` (stereo not drawn), which protection is on record?
**A.** The protection was 5.1%.

**Q.** Which protection does the source give for `Nc1c2c(nc3ccccc13)CCCC2O` (stereo not drawn) here?
**A.** Its protection is -0.07%.

**Q.** Which protection does the source give for `CC(C[N+](C)(C)C)OC(N)=O` (stereo not drawn) here?
**A.** The protection was -3.14%.

**Q.** With `O=c1c(-c2ccc(O)cc2)coc2cc(O)ccc12` as the compound, how does the protection read?
**A.** The protection was -12%.

**Q.** Which protection does the source give for `NC1(C(=O)O)CCCC1` here?
**A.** Its protection is 9.14%.

**Q.** Which protection does the source give for `O=c1[nH]c(=O)n(C2C[C@@H](O)[C@@H](CO)O2)cc1F` (stereo partly drawn) here?
**A.** The protection was -2.53%.

**Q.** Which protection does the source give for `CC(=O)O[C@]1(C(C)=O)CCC2C3C=C(Cl)C4=CC(=O)[C@@H]5C[C@@H]5[C@]4(C)C3CC[C@@]21C` (stereo partly drawn) here?
**A.** Its protection is -19.3%.

**Q.** Which protection does the source give for `CCCNC(=O)NS(=O)(=O)c1ccc(Cl)cc1` here?
**A.** The protection was -4.07%.

**Q.** For `NCCCCC(N)C(=O)NCC(=O)NC(Cc1cnc[nH]1)C(=O)NC(CCCCN)C(=O)O` (stereo not drawn) (H-KGHK-OH; configuration not given here), which protection is on record?
**A.** The protection was -17.7%.

**Q.** With `C[C@@H]1CC2C3C[C@H](F)C4=CC(=O)C=CC4(C)C3(F)[C@@H](O)CC2(C)C1C(=O)COC(=O)C(C)(C)C` (stereo partly drawn) as the compound, how does the protection read?
**A.** The protection was 1.75%.

**Q.** Which protection does the source give for `CCCCCC(C)N` (stereo not drawn) here?
**A.** The protection was 15%.

**Q.** With `NS(=O)(=O)c1cc2c(cc1C(F)(F)F)NCNS2(=O)=O` as the compound, how does the protection read?
**A.** Its protection is -7.49%.

**Q.** With `COC(=O)Nc1nc2ccc(Sc3ccccc3)cc2[nH]1` as the compound, how does the protection read?
**A.** Its protection is -19%.

**Q.** With `CCCCCCOc1ccccc1C(N)=O` as the compound, how does the protection read?
**A.** Its protection is -22.3%.

**Q.** Which protection does the source give for `O=C1NC(=O)C(c2ccccc2)(c2ccccc2)N1` here?
**A.** Its protection is -10.8%.

**Q.** Which protection does the source give for `COc1cccc(OC)c1C(=O)N[C@@H]1C(=O)N2[C@@H]1SC(C)(C)[C@@H]2C(=O)O` here?
**A.** Its protection is -11.9%.

**Q.** Which protection does the source give for `CN(Cc1cnc2nc(N)nc(N)c2n1)c1ccc(C(=O)N[C@@H](CCC(=O)O)C(=O)O)cc1` here?
**A.** Its protection is -6.3%.

**Q.** With `O=C1CN(/N=C/c2ccc([N+](=O)[O-])o2)C(=O)N1` as the compound, how does the protection read?
**A.** Its protection is -14.4%.

**Q.** With `C=C[C@H]1CN2CC[C@H]1C[C@@H]2[C@H](O)c1ccnc2ccc(OC)cc12` as the compound, how does the protection read?
**A.** Its protection is -16.3%.

**Q.** For `CSCCC(NC=O)C(=O)NC(CC(C)C)C(=O)NC(Cc1ccccc1)C(=O)O` (stereo not drawn), which protection is on record?
**A.** Its protection is 13.9%.

**Q.** With `Cn1cc[nH]c1=S` as the compound, how does the protection read?
**A.** The protection was -20.4%.

**Q.** With `CSc1ccc2c(c1)N(CCC1CCCCN1C)c1ccccc1S2` (stereo not drawn) as the compound, how does the protection read?
**A.** The protection was 2.04%.

**Q.** Which protection does the source give for `CC(=O)[C@H]1CCC2C3CCC4=CC(=O)CC[C@]4(C)C3CC[C@@]21C` (stereo partly drawn) here?
**A.** The protection was 0.94%.

**Q.** With `C=C[C@@]1(C)CC(=O)[C@@]2(O)[C@](C)(O1)[C@@H](OC(C)=O)[C@@H](O)C1C(C)(C)CC[C@H](O)[C@@]12C` (stereo partly drawn) as the compound, how does the protection read?
**A.** The protection was -38.8%.

**Q.** With `Cc1cc(C)nc(NS(=O)(=O)c2ccc(N)cc2)n1` as the compound, how does the protection read?
**A.** The protection was -12.4%.

**Q.** With `NNc1nncc2ccccc12` as the compound, how does the protection read?
**A.** Its protection is -10.5%.

**Q.** Which protection does the source give for `CN(C)CCCN1c2ccccc2Sc2ccc(Cl)cc21` here?
**A.** Its protection is -15.5%.

**Q.** Which protection does the source give for `O=C(O)C1=CCNCC1` here?
**A.** The protection was -9.58%.

**Q.** With `COc1cc(C(=O)NCc2ccc(OCCN(C)C)cc2)cc(OC)c1OC` as the compound, how does the protection read?
**A.** The protection was 11.3%.
